# Results are given in words; binding and its absence hold for the method and conditions named. Binding seen in cells or lysates may run through a third protein. Some results given as binding are weak or reduced against the parent protein; the word gives no strength.
# Amino acid sequences for entries named in this document (tags omitted). Residues count along the entry.
# UniProt Q04206: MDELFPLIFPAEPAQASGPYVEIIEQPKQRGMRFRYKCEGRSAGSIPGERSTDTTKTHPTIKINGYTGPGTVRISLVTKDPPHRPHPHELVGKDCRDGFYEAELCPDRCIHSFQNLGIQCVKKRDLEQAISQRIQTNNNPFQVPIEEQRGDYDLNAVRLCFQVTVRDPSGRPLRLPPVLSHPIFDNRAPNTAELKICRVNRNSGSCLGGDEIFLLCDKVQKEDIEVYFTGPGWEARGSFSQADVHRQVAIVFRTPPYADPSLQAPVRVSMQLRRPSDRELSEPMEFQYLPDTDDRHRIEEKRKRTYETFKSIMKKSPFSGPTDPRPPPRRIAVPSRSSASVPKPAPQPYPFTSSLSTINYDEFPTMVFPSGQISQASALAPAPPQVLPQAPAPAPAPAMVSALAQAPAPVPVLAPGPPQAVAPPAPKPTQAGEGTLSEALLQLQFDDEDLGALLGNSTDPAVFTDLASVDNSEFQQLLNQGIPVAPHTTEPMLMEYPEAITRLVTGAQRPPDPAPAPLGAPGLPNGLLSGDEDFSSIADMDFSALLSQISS
# UniProt P19838, residues 1-433: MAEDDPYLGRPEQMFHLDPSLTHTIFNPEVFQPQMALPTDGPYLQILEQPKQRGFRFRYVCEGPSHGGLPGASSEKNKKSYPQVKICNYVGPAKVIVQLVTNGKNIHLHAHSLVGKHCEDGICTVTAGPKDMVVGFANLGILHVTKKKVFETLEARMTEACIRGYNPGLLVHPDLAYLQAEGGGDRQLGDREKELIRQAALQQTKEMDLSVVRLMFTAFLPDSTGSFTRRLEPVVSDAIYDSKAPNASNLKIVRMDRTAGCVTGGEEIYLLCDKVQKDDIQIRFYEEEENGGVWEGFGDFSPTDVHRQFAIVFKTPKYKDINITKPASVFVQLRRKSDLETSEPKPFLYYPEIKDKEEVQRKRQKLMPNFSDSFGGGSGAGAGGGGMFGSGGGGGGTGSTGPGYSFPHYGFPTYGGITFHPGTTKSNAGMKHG
# Biological target: p65 (RelA) (human (endogenous in SMMC-7721)) (UniProt Q04206)
# Test: co-IP; extracts of SMMC-7721 cells; IP with anti-p65 antibody and protein G plus/protein A agarose, 4 °C overnight; washes with 50 mM Tris-HCl pH 7.9, 150 mM NaCl, 1% NP-40; p50 detected by immunoblot; cells preincubated with EriB for 3 h before TNF-α (10 ng/ml) stimulation
substance,measurement,value
p50 (NF-κB1 p50 subunit) (from UniProt P19838 1-433),binding,binds

# Reference: article PMC4294364
